Reference: patent publication US12496357B2, “Compositions and methods for treating sickle cell disease” (Yale University, priority 2019, dated 2025)

System: SCD mutation (β-globin gene), bulk mouse bone marrow cells
Experiment: SCD gene correction by ddPCR of gDNA, bulk bone marrow cells treated ex vivo
Assay type: cell-based
Settings: PLGA or PLA-HPG NPs encapsulating sertcPNA 2, with or without inhibitor
Procedure: Bulk mouse bone marrow cells were treated with PLGA NPs encapsulating tcPNA 1A, 2A, 3A and correcting donor DNA molecules.
Bulk bone marrow cells were treated with PLGA NPs encapsulating modified (tc PNA 2A) and unmodified versions (tc PNA 2) of PNA sequence. 72 hours after treatment, gDNA was isolated and analyzed for editing frequencies by ddPCR.
Bulk bone marrow cells were treated with PLGA NPs encapsulating unmodified PNA (tcPNA 2). 72 hours after treatment HSPCs, were isolated from bulk cells via negative and positive selection, and gene editing all three populations was compared.
Bulk bone marrow and HSPCs (lin^−) were treated with tcPNA 2 nanoparticles and combinations of stem cell factor, erythropoietin, and plerixafor. 72 hours after treatment, gDNA was isolated and analyzed for editing frequencies by ddPCR.
Bulk bone marrow cells were treated with tcPNA 2 encapsulated into poly(lactic-co-glycolic acid) (PLGA), or poly(lactic acid)PLA-HPG.
Nanoparticles made from poly(lactic acid) (PLA) conjugated to hyperbranched polyglycerols (HPG), referred to as PLA-HPG, were synthesized using a double emulsion solvent evaporation protocol. Briefly, 50 mg of PLA-HPG was dissolved in 2.4 mL of ethyl acetate and 0.6 mL of DMSO. PNA and donor DNA were heated to 60° C. for 10 minutes, mixed, and immediately added dropwise to the polymer solution under vortex. […]

O=C(CCCCCCC(=O)Nc1ccccc1)NO [Vorinostat, vorinostat]
effect of HDAC inhibitor on gene editing frequencies: substantially increased gene editing frequencies
